Measured values taken from patent US11866412B1, “Acridin-9-one compounds as antibacterial agents” (KING FAISAL UNIVERSITY, priority 2023, dated 2024).
Values after ≈ are worked out from the molar mass of the structure shown.

Experiments:
Experiment in all cases: in vitro antibacterial activity, dilution MIC (CLSI M07-A10)
Type in all cases: cell-based
[1] = system: Enterococcus faecium ATCC 35667; conditions: ATCC35667
[2] = system: Bacillus subtilis MTCC 441; conditions: MTCC441
[3] = system: Staphylococcus aureus ATCC BAA-1556 (MERSA resistant); conditions: ATCCBAA1556
[4] = system: Staphylococcus aureus ATCC 29213; conditions: ATCC29213
[5] = system: Pseudomonas aeruginosa MTCC 741; conditions: MTCC741
[6] = system: Enterococcus faecium ATCC 51559 (VRE resistant)
[7] = system: Staphylococcus epidermidis
[8] = system: Escherichia coli MTCC 443; conditions: MTCC443

CN[C@H](CC(C)C)C(=O)N[C@H]1C(=O)N[C@@H](CC(N)=O)C(=O)N[C@H]2C(=O)N[C@H]3C(=O)N[C@H](C(=O)N[C@H](C(=O)O)c4cc(O)cc(O)c4-c4cc3ccc4O)[C@H](O)c3ccc(c(Cl)c3)Oc3cc2cc(c3O[C@@H]2O[C@H](CO)[C@@H](O)[C@H](O)[C@H]2O[C@H]2C[C@](C)(N)[C@H](O)[C@H](C)O2)Oc2ccc(cc2Cl)[C@H]1O [Vancomycin, reference compound]
MIC [1]: 0.5 µg/mL (≈ 0.345 µM)
MIC [2]: 0.5 µg/mL (≈ 0.345 µM)
MIC [3]: 1 µg/mL (≈ 0.69 µM)
MIC [4]: 1 µg/mL (≈ 0.69 µM)
MIC [5]: > 128 µg/mL
MIC [6]: > 128 µg/mL
MIC [7]: 1 µg/mL (≈ 0.69 µM)
MIC [8]: > 128 µg/mL
